Laboratory results taken from the supplement of paper PMC10849652.
This is one part of the list.

Protein sequences, listed by entry. Tags and fused reporters are not part of them. Lines headed by an entry give the natural chain unless they say otherwise; changes in a name come on top.
UniProt P54274: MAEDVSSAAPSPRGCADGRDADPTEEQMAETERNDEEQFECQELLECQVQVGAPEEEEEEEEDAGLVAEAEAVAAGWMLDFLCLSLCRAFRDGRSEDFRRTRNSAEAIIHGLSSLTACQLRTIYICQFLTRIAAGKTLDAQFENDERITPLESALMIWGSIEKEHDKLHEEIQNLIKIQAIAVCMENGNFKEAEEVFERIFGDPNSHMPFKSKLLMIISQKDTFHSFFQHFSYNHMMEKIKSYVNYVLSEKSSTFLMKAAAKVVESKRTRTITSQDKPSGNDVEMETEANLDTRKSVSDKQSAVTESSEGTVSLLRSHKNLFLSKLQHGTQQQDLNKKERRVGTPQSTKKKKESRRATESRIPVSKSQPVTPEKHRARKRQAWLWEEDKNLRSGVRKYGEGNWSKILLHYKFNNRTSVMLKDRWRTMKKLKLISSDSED
UniProt Q7L2K0: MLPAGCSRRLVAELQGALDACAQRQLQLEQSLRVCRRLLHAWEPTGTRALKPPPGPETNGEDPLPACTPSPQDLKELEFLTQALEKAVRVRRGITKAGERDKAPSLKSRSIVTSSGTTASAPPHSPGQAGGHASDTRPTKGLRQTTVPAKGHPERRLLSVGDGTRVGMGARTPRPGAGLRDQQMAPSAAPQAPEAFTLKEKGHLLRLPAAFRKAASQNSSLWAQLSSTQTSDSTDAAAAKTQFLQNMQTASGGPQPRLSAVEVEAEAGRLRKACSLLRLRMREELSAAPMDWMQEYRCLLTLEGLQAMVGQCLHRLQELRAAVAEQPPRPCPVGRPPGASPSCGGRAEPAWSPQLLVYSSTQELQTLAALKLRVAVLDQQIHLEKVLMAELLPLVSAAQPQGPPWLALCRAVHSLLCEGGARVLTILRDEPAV
UniProt Q13428: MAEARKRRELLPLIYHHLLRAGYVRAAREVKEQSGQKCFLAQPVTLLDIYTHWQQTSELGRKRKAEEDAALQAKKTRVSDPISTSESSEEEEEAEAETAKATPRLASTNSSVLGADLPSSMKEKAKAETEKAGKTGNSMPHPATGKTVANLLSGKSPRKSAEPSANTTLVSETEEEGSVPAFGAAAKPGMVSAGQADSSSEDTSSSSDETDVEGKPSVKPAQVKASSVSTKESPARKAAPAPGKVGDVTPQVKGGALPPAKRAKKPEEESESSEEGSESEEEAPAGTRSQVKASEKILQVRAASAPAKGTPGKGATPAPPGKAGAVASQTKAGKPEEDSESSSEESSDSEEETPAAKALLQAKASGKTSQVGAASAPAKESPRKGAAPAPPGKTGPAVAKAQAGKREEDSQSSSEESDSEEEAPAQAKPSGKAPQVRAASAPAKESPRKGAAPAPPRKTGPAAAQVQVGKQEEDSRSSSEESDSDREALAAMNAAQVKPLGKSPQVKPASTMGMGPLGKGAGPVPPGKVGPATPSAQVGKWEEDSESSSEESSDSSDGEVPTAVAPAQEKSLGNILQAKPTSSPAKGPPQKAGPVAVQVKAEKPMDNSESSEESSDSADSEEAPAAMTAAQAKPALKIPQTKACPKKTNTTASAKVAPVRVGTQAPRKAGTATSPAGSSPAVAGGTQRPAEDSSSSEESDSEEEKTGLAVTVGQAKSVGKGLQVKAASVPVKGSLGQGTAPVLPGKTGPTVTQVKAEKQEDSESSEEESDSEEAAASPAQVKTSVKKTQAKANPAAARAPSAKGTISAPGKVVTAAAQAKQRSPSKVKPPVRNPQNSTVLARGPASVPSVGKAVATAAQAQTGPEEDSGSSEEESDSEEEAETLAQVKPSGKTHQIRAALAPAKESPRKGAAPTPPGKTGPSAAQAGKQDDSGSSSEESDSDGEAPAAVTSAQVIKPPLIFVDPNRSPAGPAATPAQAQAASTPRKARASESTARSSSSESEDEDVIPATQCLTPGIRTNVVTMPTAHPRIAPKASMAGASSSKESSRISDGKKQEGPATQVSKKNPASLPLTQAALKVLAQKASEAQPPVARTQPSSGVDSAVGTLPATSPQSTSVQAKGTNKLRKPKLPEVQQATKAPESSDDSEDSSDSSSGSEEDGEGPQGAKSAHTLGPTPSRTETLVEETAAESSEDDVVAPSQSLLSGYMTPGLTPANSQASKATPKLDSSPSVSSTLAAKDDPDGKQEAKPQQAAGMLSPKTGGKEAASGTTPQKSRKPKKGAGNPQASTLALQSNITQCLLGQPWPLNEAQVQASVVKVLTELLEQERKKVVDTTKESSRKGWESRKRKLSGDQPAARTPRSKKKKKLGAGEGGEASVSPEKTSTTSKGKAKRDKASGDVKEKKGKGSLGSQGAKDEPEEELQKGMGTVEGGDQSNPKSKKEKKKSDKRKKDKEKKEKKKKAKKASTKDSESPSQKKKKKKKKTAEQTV
UniProt P42680: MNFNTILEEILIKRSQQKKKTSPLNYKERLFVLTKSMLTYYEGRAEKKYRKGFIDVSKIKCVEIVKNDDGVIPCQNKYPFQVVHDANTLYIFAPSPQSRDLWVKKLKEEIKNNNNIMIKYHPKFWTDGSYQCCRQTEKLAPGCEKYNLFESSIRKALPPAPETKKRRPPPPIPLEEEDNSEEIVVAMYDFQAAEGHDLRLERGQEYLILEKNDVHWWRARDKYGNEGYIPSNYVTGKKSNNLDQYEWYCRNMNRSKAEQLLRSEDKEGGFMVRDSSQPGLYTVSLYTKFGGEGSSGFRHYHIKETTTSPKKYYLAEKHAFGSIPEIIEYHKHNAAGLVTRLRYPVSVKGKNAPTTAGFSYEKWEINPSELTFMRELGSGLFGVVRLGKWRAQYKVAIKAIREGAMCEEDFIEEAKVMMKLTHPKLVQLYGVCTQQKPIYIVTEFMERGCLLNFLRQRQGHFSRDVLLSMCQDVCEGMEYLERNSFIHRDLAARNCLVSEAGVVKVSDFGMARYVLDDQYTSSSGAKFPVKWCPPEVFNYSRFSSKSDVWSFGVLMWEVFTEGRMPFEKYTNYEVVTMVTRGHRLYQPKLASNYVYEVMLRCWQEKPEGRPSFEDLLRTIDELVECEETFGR
UniProt O60347: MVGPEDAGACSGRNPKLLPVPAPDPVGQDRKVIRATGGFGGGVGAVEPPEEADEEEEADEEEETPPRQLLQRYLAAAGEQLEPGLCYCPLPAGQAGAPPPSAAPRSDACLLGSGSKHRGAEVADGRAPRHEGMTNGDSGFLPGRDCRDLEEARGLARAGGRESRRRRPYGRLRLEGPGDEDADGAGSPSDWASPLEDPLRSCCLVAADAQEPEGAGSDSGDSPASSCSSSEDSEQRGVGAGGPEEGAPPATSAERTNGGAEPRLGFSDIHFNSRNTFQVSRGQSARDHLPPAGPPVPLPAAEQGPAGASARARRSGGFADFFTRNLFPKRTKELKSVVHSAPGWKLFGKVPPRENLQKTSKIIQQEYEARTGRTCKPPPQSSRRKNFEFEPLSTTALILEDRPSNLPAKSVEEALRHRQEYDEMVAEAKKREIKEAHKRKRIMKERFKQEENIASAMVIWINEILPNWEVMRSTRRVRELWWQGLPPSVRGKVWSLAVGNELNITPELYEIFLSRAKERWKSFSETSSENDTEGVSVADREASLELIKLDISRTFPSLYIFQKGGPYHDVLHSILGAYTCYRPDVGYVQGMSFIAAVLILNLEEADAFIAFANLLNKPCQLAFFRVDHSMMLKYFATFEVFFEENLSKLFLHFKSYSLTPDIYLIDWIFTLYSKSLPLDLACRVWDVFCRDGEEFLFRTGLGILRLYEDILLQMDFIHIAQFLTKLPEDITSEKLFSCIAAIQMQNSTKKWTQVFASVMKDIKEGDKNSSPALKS
UniProt P15884: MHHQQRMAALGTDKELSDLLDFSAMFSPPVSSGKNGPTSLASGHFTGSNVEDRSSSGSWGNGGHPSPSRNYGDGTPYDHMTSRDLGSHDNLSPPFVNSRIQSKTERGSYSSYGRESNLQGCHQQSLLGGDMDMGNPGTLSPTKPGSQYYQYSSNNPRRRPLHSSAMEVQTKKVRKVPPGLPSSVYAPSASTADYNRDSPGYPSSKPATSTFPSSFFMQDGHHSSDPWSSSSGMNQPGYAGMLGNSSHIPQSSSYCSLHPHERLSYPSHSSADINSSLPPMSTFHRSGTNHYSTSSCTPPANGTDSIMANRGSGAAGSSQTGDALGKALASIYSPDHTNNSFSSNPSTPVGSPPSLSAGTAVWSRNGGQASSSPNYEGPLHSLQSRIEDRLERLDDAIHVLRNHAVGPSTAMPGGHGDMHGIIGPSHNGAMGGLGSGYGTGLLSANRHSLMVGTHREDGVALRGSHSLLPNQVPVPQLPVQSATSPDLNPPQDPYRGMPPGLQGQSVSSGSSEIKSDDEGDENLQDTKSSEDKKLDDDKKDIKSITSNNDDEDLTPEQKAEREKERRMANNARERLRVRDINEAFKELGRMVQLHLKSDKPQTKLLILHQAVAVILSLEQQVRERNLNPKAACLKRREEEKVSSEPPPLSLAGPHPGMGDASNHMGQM
UniProt Q15560: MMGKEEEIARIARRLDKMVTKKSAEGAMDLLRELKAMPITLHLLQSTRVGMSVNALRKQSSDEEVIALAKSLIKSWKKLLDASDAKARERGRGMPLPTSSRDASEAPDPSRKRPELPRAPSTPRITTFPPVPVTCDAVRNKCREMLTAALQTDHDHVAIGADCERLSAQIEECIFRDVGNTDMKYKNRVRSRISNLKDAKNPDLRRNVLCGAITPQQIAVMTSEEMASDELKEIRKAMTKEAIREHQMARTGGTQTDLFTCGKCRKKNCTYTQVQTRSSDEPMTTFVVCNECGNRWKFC

Columns and labels:
Assay in all cases: log2 fold change, soluble protein after heating vs DMSO (PISA); higher = thermal stabilisation; K562 lysate, 10 uM; active = over 0.2 and 3.5 SD of the protein, either way, in both replicates (recomputed)
[1] = compound: CC1=C(C(CC(=O)N1)C2=CC=C(C=C2)C(F)(F)F)C(=O)NC3=C(C=C4C(=C3)C=NN4)F
Outline: (§1)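 To prepare the extract, K562 pellets were dounce-homogenised in PBS pH 7.4 with 1 mM MgCl2, giving crude material at 1 mg/mL protein. This was treated with 10 μM compound for 30 min, then heated in aliquots for 3 min over 48°C-58°C before pooling and addition of NP-40 to 0.5% at 4°C. Centrifugation at 21,000xg for 90 min left soluble protein in the supernatant, which TMTpro 16plex LC-MS/MS quantified with equalised channel sums. Results are log-two fold changes in thermal stability compared with solvent controls, from duplicates.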

[2] = compound: CC1=C(C=C(C=C1)NC(=O)C2=CC(=CC=C2)C(C)(C)C#N)NC3=CC4=C(C=C3)N=CN(C4=O)C
Outline: as §1

[3] = compound: CC(=O)c1cnc2ccc(-c3cc(Cl)c(O)c(Cl)c3)nc2c1N[C@H]1CC[C@H](CN(C)C)CC1
Outline: as §1

[4] = compound: CC1=CC=C(C=C1)SC2=C3C=C(SC3=CN=C2)C(=O)N
Outline: as §1

[5] = compound: CC(C)(C)Cn1c(N)nc2ccc(-c3[nH]c(C(C)(C)C)nc3-c3ccc(F)cc3)nc21 [ralimetinib]
Outline: as §1

[6] = compound: CC(C)(O)CC(=O)NCCn1ccc2ncnc(Nc3ccc(Oc4cccc(C(F)(F)F)c4)c(Cl)c3)c21
Outline: as §1

[7] = compound: CC(C)C1=C2N=C(C=C(N2N=C1)NCC3=CC=CC=C3)NCCCCCCN
Outline: as §1

[8] = compound: CC1=C(C2=C(C=C1)C(=O)C3=CC=CC=C3N2CCCN)C
Outline: as §1

[9] = compound: CC1=C(C=C(C=C1)NC(=O)C2=CC(=CC=C2)N(C)C)NC(=O)C3=CC=C(C=C3)O
Outline: as §1

Measured: log2 fold change

TERF1 (UniProt P54274)
inactive: [1] 0.048 | [2] 0.035

TBCD, A0A0J9YWI5
inactive: [2] 0.081

TEDC2 (UniProt Q7L2K0)
inactive: [3] 0 | [1] 0.041 | [2] 0.009 | [4] 0.034

TCOF1 isoform 6 (UniProt Q13428)
inactive: [3] -0.043 | [5] -0.205 | [6] -0.04 | [7] -0.139 | [1] 0.026 | [8] -0.089 | [2] 0.025 | [9] 0.063 | [4] -0.053

TEC (UniProt P42680)
inactive: [3] -0.096 | [1] -0.023 | [4] 0.143

TAZ (UniProt Q16635)
inactive: [3] -0.048 | [7] -0.067 | [2] 0.065 | [4] 0.002

TBC1D12 (UniProt O60347)
inactive: [3] -0.223 | [5] 0.064 | [6] -0.164 | [7] -0.015 | [8] -0.15 | [2] 0.042 | [9] 0.011 | [4] 0.155

TCF4 (UniProt P15884)
inactive: [3] -0.285 | [5] -0.069 | [6] 0.005 | [1] 0.007 | [8] -0.019 | [2] -0.056 | [9] 0.003 | [4] -0.035

TCEA2 (UniProt Q15560)
inactive: [5] 0.14 | [6] 0.026 | [9] 0.189
